# Values from PubChem BioAssay AID1259405 (NCATS, 2018).
# Screen: 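Mouse-designed siRNAs used to find CHO productivity engineering targets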 (primary screen)
# Cell system: Chinese hamster CHO-K1 ovary cells with stable secreted eGFP expression
# Reagents: single siRNA against mouse genes, 0.8 pmol siRNA per well (2 µl of 400 nM stock)
# Duration: 3 days
# Measured: 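Per-well intracellular GFP measured by laser scanning cytometry, plus viability from ATP luminescence, each relative to plate median of non-targeting control wells, in %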
# Direction: GFP, % of control: higher = more GFP per well, higher productivity; viability (ATP), % of control: higher = more viable cells (more ATP)
# Rule for the call: 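Called active when intracellular GFP, relative to negative control, is at or above 120%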
# The deposit covers about 50,000 reagents; below is an unselected part. Of all reagents, about 4,000 (8%) were called active. 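Mouse siRNA library applied to hamster cells; one well for each siRNA.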 Unmarked entries are inactive. Reagents against one gene are numbered here. Reagent sequences are not shown.
Gene,reagent,"GFP, % of control","viability (ATP), % of control"
Arap3,1,126 (active),148
Arap3,2,145 (active),103
Arap3,3,55.4,69.8
Slx1b,1,143 (active),27
Slx1b,2,97.5,58.3
Slx1b,3,100,69.9
Eif2ak3,1,79.7,83.1
Or8g20,1,35.6,46.5
Or8g20,2,75.5,65.2
Or8g20,3,77.8,117
Hykk,1,84.9,80.4
Hykk,2,84.8,62.5
Hykk,3,94.6,121
Stx6,1,125 (active),125
Stx6,2,75.6,69.9
Ces3b,1,92,75.8
Ces3b,2,62.9,82.8
Ces3b,3,50.8,61.3
Rala,1,132 (active),128
Rala,2,164 (active),101
Rala,3,58.3,60.4
Rala,4,76,107
Rala,5,94,102
Rala,6,77,95.9
Hsd17b13,1,68.9,69.4
Hsd17b13,2,50.6,48.9
Hsd17b13,3,88.5,78.3
Gm9903,1,64.9,60.6
Gm9903,2,83.1,65.5
Gm9903,3,66.2,79.8
Casp3,1,79.1,109
Casp3,2,59.5,57.3
Casp3,3,103,76.4
Bok,1,62.2,75.6
Bok,2,105,92.5
Ap2s1,1,182 (active),62.3
Ap2s1,2,70.9,64
Ap2s1,3,72,41.4
Zfp345,1,64.4,84.9
Zfp345,2,70,89.9
Zfp345,3,62.7,66.5
Tmem185b,1,55.2,66.3
Tmem185b,2,67.4,29.8
Tmem185b,3,71.1,65.1
Cln3,1,73.3,95.9
Cln3,2,65.8,86.8
Tnfsf11,1,88.8,106
Tnfsf11,2,104,110
Ifna6,1,58.7,53.5
Ifna6,2,124 (active),60.8
Ifna6,3,108,86.4
Lefty1,1,46.6,77.5
Lefty1,2,161 (active),90.3
Lefty1,3,78.2,81
Dnajc3,1,96.6,65.1
Dnajc3,2,103,100
Dnajc3,3,67.2,106
